Source: patent publication US9290794B2, “Mutant protease biosensors with enhanced detection characteristics” (PROMEGA CORPORATION, priority 2010, dated 2016)
Some results were stated once for a whole list of compounds, not compound by compound.

Test system: caspase-3
Experiment: CBS variants transiently transfected in HEK293 cells, kinetic luminescence response to TRAIL treatment
Assay type: cell-based
Settings: after 10 hrs TRAIL treatment, live cells (FIGS. 2, 3)
Source text: The Caspase-3 BioSensor (CBS) is a thermostable Photuris pennsylvanica luciferase (TL), circularly-permuted (CP) at amino acid 358, with a caspase-3 recognition site, i.e., one containing the caspase-3 recognition site comprising amino acids DEVD, at the junction between the TL fragments. The specific CBS that was used as the starting template is termed TL-CP358-DEVD:DD. The amino acid sequence of this CBS can be represented as: M/TL residues 358-544/SDEVDGSL/TL residues 4-354/V (SEQ ID NO:6). The amino acid positions in the CP TL correlate to those of the non-CP TL sequence (provided in the attached appendix). […]
The resulting library was expressed in E. coli and screened for luciferase activity with and without pre-treatment with recombinant caspase-3 (data not shown). CBS variants having the best signal and response characteristics were then evaluated in HEK293 cells by kinetic assay measuring the response to TNF-α-related apoptosis inducing ligand (TRAIL) treatment (Wiley, S. R. et al., Immunity 3:673 (1995); Niles, A. L. et al., Meth. Mol. Biol. 414:137 (2008)). […] The appearance of active caspase-3 should be accompanied by an increase in luminescence as the CBS variants are cleaved and activated. […] Luminescence was monitored continuously over time (Luminometer: Varioskan Flash (Thermo) 1 sec integration time). […]

B1: FC7: 24: CBS variant, 193SP 471IT 503SG 507TI (SEQ ID NOs:9 and 10) (protein)
chain: MPGSTGKIVPLHAVKVVDPTTGKILGPNEPGELYFKGPMIMKGYYNNEEATKAIIDNDGWLRSGDIAYYDNDGHFYIVDRLKSLIKYKGYQVAPAEIEGILLQHPYIVDAGVTGTPDEAAGELPAAGVVVQTGKYLNEQIVQDYVAGQVSIAKWLRGGVKFLDEIPKGSTGKIDRKVLRQMLEKHTNGSDEVDGSLKNILYGPEPFYPLEDGTAGEQMFDALSRYAAIPGCIALTNAHTKENVLYEEFLKLSCRLAESFKKYGLKQNDTIAVCSENSLQFFLPVIASLYLGIIVAPVNDKYIERELIHSLGIVKPRIVFCSKNTFQKVLNVKSKLKSIETIIILDLNEDLGGYQCLNNFISQNSDSNLDVKKFKPYSFNRDDQVAPIMFSSGTTGLPKGVMLTHKNIVARFSIAKDPTFGNAINPTSAILTVIPFHHGFGMMTTLGYFTCGFRVVLMHTFEEKLFLQSLQDYKVESTLLVPTLMAFLAKSALVEKYDLSHLKEIASGGAPLSKEIGEMVKKRFKLNFVRQGYGLTETTSAVLITPKGV
  greater RESPONSE compared with TL-CP358-DEVD:DD: 3.2-3.7 times

B2: FC7: 49: CBS variant, 193SP 503SG 507TI (SEQ ID NOs:13 and 14) (protein)
chain: MPGSTGKIVPLHAVKVVDPTTGKILGPNEPGELYFKGPMIMKGYYNNEEATKAIIDNDGWLRSGDIAYYDNDGHFYIVDRLKSLIKYKGYQVAPAEIEGILLQHPYIVDAGVTGIPDEAAGELPAAGVVVQTGKYLNEQIVQDYVAGQVSIAKWLRGGVKFLDEIPKGSTGKIDRKVLRQMLEKHTNGSDEVDGSLKNILYGPEPFYPLEDGTAGEQMFDALSRYAAIPGCIALTNAHTKENVLYEEFLKLSCRLAESFKKYGLKQNDTIAVCSENSLQFFLPVIASLYLGIIVAPVNDKYIERELIHSLGIVKPRIVFCSKNTFQKVLNVKSKLKSIETIIILDLNEDLGGYQCLNNFISQNSDSNLDVKKFKPYSFNRDDQVAPIMFSSGTTGLPKGVMLTHKNIVARFSIAKDPTFGNAINPTSAILTVIPFHHGFGMMTTLGYFTCGFRVVLMHTFEEKLFLQSLQDYKVESTLLVPTLMAFLAKSALVEKYDLSHLKEIASGGAPLSKEIGEMVKKRFKLNFVRQGYGLTETTSAVLITPKGV
  greater RESPONSE compared with TL-CP358-DEVD:DD: 3.2-3.7 times
